According to PubChem BioAssay AID1347076 (National Center for Advancing Translational Sciences (NCATS), 2019):
About 13,000 (3.2%) of roughly 400,000 compounds were called active. The shares of active, inactive and inconclusive entries below differ from those in the screen. Calls come from the whole dose curve; as a rule, active = well fitted cell-killing curve with a large enough effect; inconclusive = small, poorly fitted or top-dose-only effect, or effect the other way; inactive = flat fitted curve, though single readings scatter. Potencies of inconclusive entries are doubtful fits and often do not repeat.

Test: qHTS assay for MDR1-selective chemotherapeutics: Primary screen using the drug-selected MDR subline cells KB-V1; note: nearly all actives have a fitted effect of over 60% in size
Conditions: KB-V1 MDR cells viability, CellTiter-Glo, 72 h; activity change, negative = cytotoxicity: at 46.1 µM (top of the series)
Outline: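 In this primary screen, KB-V1 cells overexpressing P-gp are incubated with library compounds (lowest to highest concentration) for 72 h at 37 degrees C before a luminescent ATP viability read.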
% is set by controls: 0 for no effect and ±100 for the full control effect; potency is the fitted concentration of half-maximal effect.

Compound | Potency | activity change, negative = cytotoxicity
Cc1c(C(=O)OCCOC(C)C)[nH]c2c1C(=O)CC(c1ccco1)C2 (centres undefined) | active: 0.461 µM | 
CCCCN(C)C(=O)c1c[nH]c2ccc(S(=O)(=O)N3CCOCC3)cc2c1=O | inconclusive: 18.4 µM [rising, partial curve, poor fit] | 
Cc1ccc(-c2nc(CN3CCN(c4cnccn4)CC3)c(C)o2)o1 | inconclusive: 14.6 µM [cytotoxic, single point] | 
CCc1ccc(N2CC(C(=O)Nc3ccccc3N3CCCC3)CC2=O)cc1 (centres undefined) | inconclusive: 29.1 µM [cytotoxic, single point] | 
Cc1ccc(S(=O)(=O)N2CCCCC2)cc1NC(=O)c1ccc2c(c1)OCO2 | inconclusive: 6.51 µM [cytotoxic, partial curve] | 
Cc1ccc(C)c(NS(=O)(=O)c2cc(C(=O)Nc3cccc(N(C)S(C)(=O)=O)c3)ccc2C)c1 | inconclusive: 29.1 µM [cytotoxic, single point] | 
NC(CCc1ccccc1)c1csc(NC(=O)NCC2CCCCC2)n1 (centres undefined) | inconclusive: 29.1 µM [cytotoxic, single point] | 
Cc1nnc(NC(=O)c2ccccc2NC(=O)c2ccccc2)s1 | inconclusive: 10.3 µM [cytotoxic, partial curve] | 
O=C(Nc1c(Cl)cccc1Cl)C1CCN(C(=O)c2cccs2)CC1 | inactive | 
C#CCNC(=O)C1=C[C@@H](c2cn(C(C)=O)c3ccccc23)C[C@@H](OCc2ccc(CO)cc2)O1 |  | inconclusive: -1.99%
O=C(NCc1ccc(F)cc1F)[C@@H]1CCCN1C(=O)[C@@H]1CCCN1C(=O)c1cccs1 | inactive | 
O=C(CSc1nnc(-c2ccccc2)n1-c1ccc(Cl)cc1)NC1CCS(=O)(=O)C1 (centres undefined) | inactive | 
O=C(Nc1ccc2snnc2c1)Nc1cccc2ccccc12 | inconclusive: 23.1 µM [cytotoxic, partial curve, poor fit] | 
Nc1c(C(=O)OCC2CCCO2)c2nc3ccccc3nc2n1C1CCCC1 (centres undefined) | active: 23.1 µM | 
Cc1ccc(OCCCC(=O)Nc2nc3ccccc3[nH]2)cc1 | inconclusive: 6.51 µM [cytotoxic, full curve] | 
CC(C)c1cccc(OCCN2CCCC2)c1 |  | inconclusive: 74.3%
CCCC1CCc2[nH]nc(C(=O)NN)c2C1 (centres undefined) | inconclusive: 32.6 µM [cytotoxic, partial curve, poor fit] | 
CC(C)c1cc(-c2nc(-c3ccc(Cl)cc3)no2)n[nH]1 | inactive | 
O=[N+]([O-])c1ccc(-c2cnc(SCc3ccccc3Cl)[nH]2)cc1 | inconclusive: 29.1 µM [cytotoxic, single point] | 
O=C(Cn1cnc2c(nnn2Cc2ccccc2)c1=O)N1CCN(c2ccccc2)CC1 | inactive | 
CCOc1ccccc1NC(=O)C1=C(C)Nc2ncnn2C1c1ccco1 (centres undefined) | inconclusive: 29.1 µM [cytotoxic, single point] | 
O=C(Cc1cccc(NC(=O)C2CCCN(C(=O)C3CCCCC3)C2)c1)Nc1ccc(C(=O)N2CCCCC2)cc1 (centres undefined) |  | inconclusive: 5.68%

Compound | Potency | activity change, negative = cytotoxicity
CC(C)(C)c1cc[n+](C2=C([O-])c3ccccc3C(=O)/C2=N\S(=O)(=O)c2cccs2)cc1 | inactive | 
CC(=Nc1ccccc1C(F)(F)F)c1ccncc1 | inactive | 
CCOc1ccc(C2C(C(N)=O)=C(C)Nc3nc(SCc4ccccc4F)nn32)cc1 (centres undefined) | inconclusive: 20.6 µM [rising, single point] | 
Cc1ccc(CNC(=O)c2c(Nc3c(C)cccc3C)sc(C(=O)c3ccccc3)c2N)cc1 | inconclusive: 29.1 µM [cytotoxic, single point] | 
C[C@@H](NC(=O)Cn1ccc(N)nc1=O)c1cccc2ccccc12 | inactive | 
COC(=O)[C@@]12C[C@@H](CC(=O)NCC34CC5CC(CC(C5)C3)C4)C(=O)N(CCc3ccc(OC)c(OC)c3)C1=CCC(C)(C)C2 | active: 23.1 µM | 
O=C(N/N=C/c1ccccc1Cl)c1[nH]c2ccc(Br)cc2c1-c1ccccc1 | active: 5.8 µM | 
Cc1cccc(NC(=O)Cn2c(=O)n(Cc3ccccc3)c(=O)c3oc4ccccc4c32)c1C | inactive | 
Cc1cccc(N(C(=O)CCC(=O)Nc2ccccn2)C(C(=O)NC(C)C)c2ccc(O)cc2)c1 (centres undefined) | inactive | 
O=C1c2cccc(OCC(=O)N3N=C(c4cccs4)CC3c3ccc(F)cc3)c2CCN1Cc1cccnc1 (centres undefined) | active: 20.6 µM | 
CO[C@@H]1CN(C)C(=O)c2ccc(NC(=O)C3CCCC3)cc2OC[C@@H](C)N(Cc2ccc(F)cc2)C[C@H]1C | active: 23.1 µM | 
CCCc1cc(=O)[nH]c(SCC(=O)N2CCN(S(=O)(=O)c3ccc(C)cc3)C2)n1 | inactive | 
Cc1csc(SC(C)C(=O)Nc2ccc(S(=O)(=O)N3CCCC3)cc2)n1 (centres undefined) | inconclusive: 23.1 µM [cytotoxic, single point] | 
CC(=O)c1cccc(NC(=O)Cc2ccc3c(c2)CCCC3)c1 | inconclusive: 29.1 µM [cytotoxic, single point] | 
O=C(NC1CCCCC1)C(c1ccnc2ccccc12)n1c(=O)c(-c2ccccc2)nc2ccccc21 (centres undefined) | active: 23.1 µM | 
Cc1ccc(C(=O)C2=C(O)C(=O)N(Cc3ccco3)C2c2cccc(Br)c2)o1 (centres undefined) | inconclusive: 18.4 µM [cytotoxic, single point] | 
COc1ccc(CCNC(=O)c2ccc(CNS(=O)(=O)c3cccc(Cl)c3)cc2)cc1OC | inconclusive: 29.1 µM [cytotoxic, single point] | 
Brc1c(CSc2nncc3ccccc23)nc2ccccn12 |  | inconclusive: -38.5% [cytotoxic]
COc1cc(OC)cc(C(=O)N[C@H](C(=O)OCC(=O)N2CCc3ccccc32)C(C)C)c1 | inactive | 
CCn1c(SCC(=O)N2CCN(C(=O)c3ccco3)CC2)nnc1C(C)C | inconclusive: 29.1 µM [rising, single point] | 
Cn1c(=O)c2c(-c3ccccc3)n(-c3ccccc3Br)cc2n(C)c1=O | inconclusive: 29.1 µM [cytotoxic, single point] | 
Cc1nn(C)c(C(=O)Nc2ccn(Cc3c(F)c(F)cc(F)c3F)n2)c1[N+](=O)[O-] | active: 13 µM | 

Reformatted as tab-separated lines: 3 of the compounds above.
Compound	Potency	activity change, negative = cytotoxicity
CO[C@@H]1CN(C)C(=O)c2ccc(NC(=O)C3CCCC3)cc2OC[C@@H](C)N(Cc2ccc(F)cc2)C[C@H]1C	active: 23.1 µM	
CCCc1cc(=O)[nH]c(SCC(=O)N2CCN(S(=O)(=O)c3ccc(C)cc3)C2)n1	inactive	
Cc1csc(SC(C)C(=O)Nc2ccc(S(=O)(=O)N3CCCC3)cc2)n1 (centres undefined)	inconclusive: 23.1 µM [cytotoxic, single point]	
